Measured values taken from US20140134647A1 (LA JOLLA INSTITUTE FOR ALLERGY AND IMMUNOLOGY, published 2014).
No constants are given. Whether binding was seen depends on the method and setting. Some entries that bind do so weakly or less than the wild type.

The chains behind the UniProt entries cited, without tags or fusion partners. Where a name states a change or a piece, a line headed by the entry shows the natural chain unless it says otherwise.
UniProt P50592: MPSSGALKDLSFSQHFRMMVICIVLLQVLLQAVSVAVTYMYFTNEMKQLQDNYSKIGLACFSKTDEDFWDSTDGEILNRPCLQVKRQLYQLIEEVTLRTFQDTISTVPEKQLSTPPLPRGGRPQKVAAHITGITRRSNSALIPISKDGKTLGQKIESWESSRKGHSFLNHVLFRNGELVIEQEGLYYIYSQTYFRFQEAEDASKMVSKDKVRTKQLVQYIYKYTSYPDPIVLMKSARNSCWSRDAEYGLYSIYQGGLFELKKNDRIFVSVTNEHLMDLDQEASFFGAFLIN
UniProt Q9QZM4: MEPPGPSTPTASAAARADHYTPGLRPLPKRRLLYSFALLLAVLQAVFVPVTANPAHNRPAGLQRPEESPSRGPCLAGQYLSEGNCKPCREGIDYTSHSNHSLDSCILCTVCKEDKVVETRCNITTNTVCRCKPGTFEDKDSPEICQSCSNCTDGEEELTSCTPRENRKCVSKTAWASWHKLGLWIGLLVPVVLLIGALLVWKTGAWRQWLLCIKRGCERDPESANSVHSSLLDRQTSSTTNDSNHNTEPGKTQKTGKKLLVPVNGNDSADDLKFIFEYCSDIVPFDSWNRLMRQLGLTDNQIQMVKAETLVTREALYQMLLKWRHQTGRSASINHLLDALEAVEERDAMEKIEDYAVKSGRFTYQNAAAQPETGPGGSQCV
UniProt O14763: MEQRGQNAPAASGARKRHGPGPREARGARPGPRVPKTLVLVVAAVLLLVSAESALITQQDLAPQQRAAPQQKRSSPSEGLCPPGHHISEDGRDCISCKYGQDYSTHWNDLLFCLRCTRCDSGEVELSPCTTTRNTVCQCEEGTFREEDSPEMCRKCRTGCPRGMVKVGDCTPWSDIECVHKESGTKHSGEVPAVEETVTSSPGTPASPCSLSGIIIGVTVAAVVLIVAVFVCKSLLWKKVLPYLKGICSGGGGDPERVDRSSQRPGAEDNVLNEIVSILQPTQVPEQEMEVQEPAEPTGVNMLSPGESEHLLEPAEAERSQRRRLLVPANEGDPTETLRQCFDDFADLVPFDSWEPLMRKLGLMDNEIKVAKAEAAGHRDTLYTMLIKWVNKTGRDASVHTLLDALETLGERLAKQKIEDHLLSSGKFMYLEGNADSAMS

What was measured:
[1] = target: mouse TRAIL expressed on transiently transfected 293T cells (mouse) (UniProt P50592); experiment: flow cytometry on 293T cells transfected with mouse TRAIL
[2] = target: mouse TRAIL expressed on transiently transfected 293T cells (mouse) (UniProt P50592); experiment: flow cytometry, 293T cells transiently transfected with mouse TRAIL, Fc protein at 2, 20 and 50 ug, detected with anti-IgG RPE

Substance	binding [1]	binding [2]
mouse TRAIL-R2:Fc (extracellular domain of mouse TRAIL-R2 fused to human IgG constant domain) (from UniProt Q9QZM4 53-180; P01857 104-330) (Fc fusion)	binds	binds
human TRAIL-R2:Fc (extracellular domain of human TRAIL-R2 fused to human IgG constant domain, from 293T cells) (from UniProt O14763 56-210; P01857 104-330) (Fc fusion)	binds	binds
